In assay [1] the target is T1, Flag-FXR (human) (UniProt Q96RI1).
T1 sequence: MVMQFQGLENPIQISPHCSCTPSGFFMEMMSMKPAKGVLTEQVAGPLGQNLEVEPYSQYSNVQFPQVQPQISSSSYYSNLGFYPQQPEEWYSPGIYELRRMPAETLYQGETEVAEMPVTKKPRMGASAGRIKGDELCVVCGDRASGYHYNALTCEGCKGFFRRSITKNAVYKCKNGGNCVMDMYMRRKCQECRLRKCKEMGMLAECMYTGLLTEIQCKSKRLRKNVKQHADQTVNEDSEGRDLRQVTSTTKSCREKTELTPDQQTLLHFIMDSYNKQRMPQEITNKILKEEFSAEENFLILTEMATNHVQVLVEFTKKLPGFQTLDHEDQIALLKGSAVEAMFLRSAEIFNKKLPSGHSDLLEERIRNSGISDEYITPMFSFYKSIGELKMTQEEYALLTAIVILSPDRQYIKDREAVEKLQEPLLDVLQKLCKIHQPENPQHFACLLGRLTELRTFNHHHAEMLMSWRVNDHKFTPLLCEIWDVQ
Briefly: co-IP.

The chains behind the UniProt entries cited, without tags or fusion partners.
UniProt P42224: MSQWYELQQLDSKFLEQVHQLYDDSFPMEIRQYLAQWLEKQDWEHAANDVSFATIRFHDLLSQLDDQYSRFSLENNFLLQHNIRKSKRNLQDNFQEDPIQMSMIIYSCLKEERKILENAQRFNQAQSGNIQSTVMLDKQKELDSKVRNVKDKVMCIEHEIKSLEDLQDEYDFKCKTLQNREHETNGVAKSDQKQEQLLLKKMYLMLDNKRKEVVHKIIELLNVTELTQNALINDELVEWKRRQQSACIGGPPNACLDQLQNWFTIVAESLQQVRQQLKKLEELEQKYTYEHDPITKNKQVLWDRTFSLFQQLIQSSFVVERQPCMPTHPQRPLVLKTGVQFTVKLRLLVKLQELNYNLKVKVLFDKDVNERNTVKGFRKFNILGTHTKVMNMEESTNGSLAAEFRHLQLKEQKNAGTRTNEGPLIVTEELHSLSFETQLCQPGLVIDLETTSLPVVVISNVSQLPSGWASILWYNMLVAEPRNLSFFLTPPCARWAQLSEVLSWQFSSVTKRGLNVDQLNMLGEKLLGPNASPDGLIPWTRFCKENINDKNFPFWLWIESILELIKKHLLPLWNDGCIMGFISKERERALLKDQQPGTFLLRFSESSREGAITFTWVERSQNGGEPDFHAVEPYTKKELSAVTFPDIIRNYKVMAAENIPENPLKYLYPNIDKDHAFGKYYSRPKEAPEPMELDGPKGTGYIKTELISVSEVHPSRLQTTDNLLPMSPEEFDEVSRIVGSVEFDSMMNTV

Assay [2] deals with T2, IRF3 (interferon regulatory factor 3), expressed in HEK293T for the interaction screening (human) (UniProt Q14653).
T2 sequence: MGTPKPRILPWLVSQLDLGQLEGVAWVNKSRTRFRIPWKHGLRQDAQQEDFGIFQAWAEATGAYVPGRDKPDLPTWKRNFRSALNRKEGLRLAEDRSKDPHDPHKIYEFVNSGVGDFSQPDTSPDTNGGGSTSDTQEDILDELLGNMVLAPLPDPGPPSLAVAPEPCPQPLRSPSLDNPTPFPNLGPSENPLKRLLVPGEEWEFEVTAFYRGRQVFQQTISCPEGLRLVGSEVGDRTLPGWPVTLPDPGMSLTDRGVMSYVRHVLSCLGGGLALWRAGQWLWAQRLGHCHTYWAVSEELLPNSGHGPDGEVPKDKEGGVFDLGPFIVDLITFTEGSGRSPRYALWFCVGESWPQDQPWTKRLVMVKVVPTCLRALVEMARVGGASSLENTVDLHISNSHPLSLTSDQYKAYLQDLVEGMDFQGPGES
Put plainly: co-IP; extracts of HEK293T cells transfected with MYC-FXR and other indicated plasmids (interaction screening with components of interferon signaling); low salt lysis buffer (50 mmol/L HEPES, 150 mmol/L NaCl, 1% Triton X-100, pH 7.4), overnight.

The target of assay [3] is STAT1 (human) (UniProt P42224). The description is as above.
In assay [4] the target is T3, Flag-IRF3 (human) (UniProt Q14653).
T3 sequence: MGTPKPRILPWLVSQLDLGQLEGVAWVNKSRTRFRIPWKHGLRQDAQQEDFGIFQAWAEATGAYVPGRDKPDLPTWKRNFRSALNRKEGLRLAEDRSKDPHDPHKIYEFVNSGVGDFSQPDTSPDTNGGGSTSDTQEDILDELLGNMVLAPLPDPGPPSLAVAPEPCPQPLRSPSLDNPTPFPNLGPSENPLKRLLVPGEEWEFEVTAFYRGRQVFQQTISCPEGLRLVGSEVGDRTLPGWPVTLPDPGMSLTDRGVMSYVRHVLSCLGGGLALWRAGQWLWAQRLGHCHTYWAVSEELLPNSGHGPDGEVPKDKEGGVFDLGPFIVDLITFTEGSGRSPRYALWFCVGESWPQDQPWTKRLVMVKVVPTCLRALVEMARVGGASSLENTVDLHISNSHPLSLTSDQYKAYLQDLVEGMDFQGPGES
Put plainly: co-IP; HEK293T cells co-transfected with HA-FXR and Flag-IRF3 or its mutants; Flag-tagged proteins immunoprecipitated with anti-Flag beads, immunoblot. Background: Immunoblotting shows a protein as a band on a membrane.

Results are given in words; binding and its absence hold for the method and conditions named. In cells and extracts the contact can be indirect. Some entries that bind do so weakly or less than the wild type. Tags and fused reporters may be left off the sequences shown.

B1: HA-IRF3 (protein, UniProt Q14653 1-427)
chain: MGTPKPRILPWLVSQLDLGQLEGVAWVNKSRTRFRIPWKHGLRQDAQQEDFGIFQAWAEATGAYVPGRDKPDLPTWKRNFRSALNRKEGLRLAEDRSKDPHDPHKIYEFVNSGVGDFSQPDTSPDTNGGGSTSDTQEDILDELLGNMVLAPLPDPGPPSLAVAPEPCPQPLRSPSLDNPTPFPNLGPSENPLKRLLVPGEEWEFEVTAFYRGRQVFQQTISCPEGLRLVGSEVGDRTLPGWPVTLPDPGMSLTDRGVMSYVRHVLSCLGGGLALWRAGQWLWAQRLGHCHTYWAVSEELLPNSGHGPDGEVPKDKEGGVFDLGPFIVDLITFTEGSGRSPRYALWFCVGESWPQDQPWTKRLVMVKVVPTCLRALVEMARVGGASSLENTVDLHISNSHPLSLTSDQYKAYLQDLVEGMDFQGPGES
For B1, the binding result in assay [1] is reported as “binds”.

B2: MYC-FXR (farnesoid X receptor) (protein, UniProt Q96RI1 1-486)
chain: MVMQFQGLENPIQISPHCSCTPSGFFMEMMSMKPAKGVLTEQVAGPLGQNLEVEPYSQYSNVQFPQVQPQISSSSYYSNLGFYPQQPEEWYSPGIYELRRMPAETLYQGETEVAEMPVTKKPRMGASAGRIKGDELCVVCGDRASGYHYNALTCEGCKGFFRRSITKNAVYKCKNGGNCVMDMYMRRKCQECRLRKCKEMGMLAECMYTGLLTEIQCKSKRLRKNVKQHADQTVNEDSEGRDLRQVTSTTKSCREKTELTPDQQTLLHFIMDSYNKQRMPQEITNKILKEEFSAEENFLILTEMATNHVQVLVEFTKKLPGFQTLDHEDQIALLKGSAVEAMFLRSAEIFNKKLPSGHSDLLEERIRNSGISDEYITPMFSFYKSIGELKMTQEEYALLTAIVILSPDRQYIKDREAVEKLQEPLLDVLQKLCKIHQPENPQHFACLLGRLTELRTFNHHHAEMLMSWRVNDHKFTPLLCEIWDVQ
In the case of B2, the binding entry in assay [2] and in assay [3] was “binds” throughout.

B3: HA-FXR (protein, UniProt Q96RI1 1-486)
chain: MVMQFQGLENPIQISPHCSCTPSGFFMEMMSMKPAKGVLTEQVAGPLGQNLEVEPYSQYSNVQFPQVQPQISSSSYYSNLGFYPQQPEEWYSPGIYELRRMPAETLYQGETEVAEMPVTKKPRMGASAGRIKGDELCVVCGDRASGYHYNALTCEGCKGFFRRSITKNAVYKCKNGGNCVMDMYMRRKCQECRLRKCKEMGMLAECMYTGLLTEIQCKSKRLRKNVKQHADQTVNEDSEGRDLRQVTSTTKSCREKTELTPDQQTLLHFIMDSYNKQRMPQEITNKILKEEFSAEENFLILTEMATNHVQVLVEFTKKLPGFQTLDHEDQIALLKGSAVEAMFLRSAEIFNKKLPSGHSDLLEERIRNSGISDEYITPMFSFYKSIGELKMTQEEYALLTAIVILSPDRQYIKDREAVEKLQEPLLDVLQKLCKIHQPENPQHFACLLGRLTELRTFNHHHAEMLMSWRVNDHKFTPLLCEIWDVQ
Regarding B3, the binding entry in assay [4] is “binds”.
